Measured data: PubChem BioAssay AID1159579 (Peter MacCallum Cancer Centre, 2015)

Screen: 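Retest candidate lymphatic endothelial migration regulators using several independent siRNAs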 (follow-up of hits)
Cells: human dermal lymphatic endothelial cells
Reagent: single siRNA against human genes, 25 nM
Measured: 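High content images of wound closure area and cell nuclei counts, each the average of two wells, expressed against mock transfection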
Scale: migration relative to mock: higher = more migration into the scratch; mean nuclei count: higher = more cells remaining
Call rule: 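a ratio of at most 0.6 or at least 1.3 marks altered migration and an active call; a mean nuclei count under 3300 forces an inactive call regardless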
Meaning of the calls: active = migration changed (impaired or accelerated); inactive = no migration change, or too few cells
Here is an unselected part of about 2,000 deposited reagents. 549 of all reagents (27%) count as active. 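Some migration ratios are negative; siRNAs with too few cells are inactive whatever their migration ratio.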 Reagents against one gene are numbered here. No sequences are given here. Not stated in the record: the time to read-out.

What is on record for ATG12 #1?
migration relative to mock: 0.88; migration and cell number class: no change in migration or cell number; mean nuclei count: 6017; Outcome: inactive

With ATG12 #2, what does the deposit list?
migration relative to mock: 0.72; migration and cell number class: no change in migration or cell number; mean nuclei count: 6428; Outcome: inactive

How did the screen score ATG12 #3?
migration relative to mock: 0.66; migration and cell number class: no change in migration or cell number; mean nuclei count: 6512; Outcome: inactive

With ATG12 #4, what does the deposit list?
migration relative to mock: 1.08; migration and cell number class: no change in migration or cell number; mean nuclei count: 6124; Outcome: inactive

For CDK20 #1, what does the deposit list?
migration relative to mock: 0.7; migration and cell number class: no change in migration or cell number; mean nuclei count: 5678; Outcome: inactive

With CDK20 #2, how do the results read?
migration relative to mock: 0.65; migration and cell number class: no change in migration or cell number; mean nuclei count: 4763; Outcome: inactive

How did the screen score CDK20 #3?
migration relative to mock: -0.1; migration and cell number class: too few cells; migration not scored; mean nuclei count: 2776; Outcome: inactive

With CDK20 #4, what was measured?
migration relative to mock: 0.84; migration and cell number class: no change in migration or cell number; mean nuclei count: 6611; Outcome: inactive

How did the screen score SYNGAP1 #1?
migration relative to mock: 0.53; migration and cell number class: migration reduced; mean nuclei count: 5380; Outcome: active

With SYNGAP1 #2, how do the results read?
migration relative to mock: 0.89; migration and cell number class: no change in migration or cell number; mean nuclei count: 7894; Outcome: inactive

For SYNGAP1 #3, how do the results read?
migration relative to mock: -0.18; migration and cell number class: migration reduced; mean nuclei count: 3888; Outcome: active

With SYNGAP1 #4, how do the results read?
migration relative to mock: 0.97; migration and cell number class: no change in migration or cell number; mean nuclei count: 6522; Outcome: inactive

Looked up above.
CDK20 #3, Outcome = inactive
SYNGAP1 #1, migration relative to mock: 0.53
For “migration and cell number class”, ATG12 #2 reads no change in migration or cell number

The list goes on:
How did the screen score KANSL1 #1?
migration relative to mock: 0.46; migration and cell number class: migration reduced; mean nuclei count: 3582; Outcome: active

What did the screen give for KANSL1 #2?
migration relative to mock: 0.56; migration and cell number class: migration reduced; mean nuclei count: 3895; Outcome: active

For KANSL1 #3, how do the results read?
migration relative to mock: 0.73; migration and cell number class: no change in migration or cell number; mean nuclei count: 3550; Outcome: inactive

How did the screen score KANSL1 #4?
migration relative to mock: 0.81; migration and cell number class: no change in migration or cell number; mean nuclei count: 5207; Outcome: inactive

With PXYLP1 #1, how do the results read?
migration relative to mock: 0.9; migration and cell number class: no change in migration or cell number; mean nuclei count: 6629; Outcome: inactive

For PXYLP1 #2, what does the deposit list?
migration relative to mock: 0.74; migration and cell number class: no change in migration or cell number; mean nuclei count: 6155; Outcome: inactive

With PXYLP1 #3, what does the deposit list?
migration relative to mock: 0.32; migration and cell number class: migration reduced; mean nuclei count: 5297; Outcome: active

How did the screen score PXYLP1 #4?
migration relative to mock: 1; migration and cell number class: no change in migration or cell number; mean nuclei count: 6766; Outcome: inactive

What is on record for CKM #1?
migration relative to mock: 0.42; migration and cell number class: migration reduced; mean nuclei count: 6183; Outcome: active

For CKM #2, what was measured?
migration relative to mock: 0.29; migration and cell number class: migration reduced; mean nuclei count: 3438; Outcome: active

With CKM #3, what was measured?
migration relative to mock: 0.88; migration and cell number class: no change in migration or cell number; mean nuclei count: 5248; Outcome: inactive

For CKM #4, what does the deposit list?
migration relative to mock: 0.64; migration and cell number class: no change in migration or cell number; mean nuclei count: 4877; Outcome: inactive

Which result is listed for ADCY6 #1?
migration relative to mock: 1.11; migration and cell number class: no change in migration or cell number; mean nuclei count: 6449; Outcome: inactive

For ADCY6 #2, how do the results read?
migration relative to mock: 0.9; migration and cell number class: no change in migration or cell number; mean nuclei count: 3681; Outcome: inactive

What is on record for ADCY6 #3?
migration relative to mock: 0.92; migration and cell number class: no change in migration or cell number; mean nuclei count: 4239; Outcome: inactive

What did the screen give for ADCY6 #4?
migration relative to mock: 1.11; migration and cell number class: no change in migration or cell number; mean nuclei count: 5611; Outcome: inactive

With SLC13A5 #1, how do the results read?
migration relative to mock: 0.86; migration and cell number class: no change in migration or cell number; mean nuclei count: 7588; Outcome: inactive

How did the screen score SLC13A5 #2?
migration relative to mock: -0.4; migration and cell number class: migration reduced; mean nuclei count: 4085; Outcome: active

With SLC13A5 #3, what does the deposit list?
migration relative to mock: 0.78; migration and cell number class: no change in migration or cell number; mean nuclei count: 5546; Outcome: inactive

For SLC13A5 #4, what was measured?
migration relative to mock: 0.99; migration and cell number class: no change in migration or cell number; mean nuclei count: 6970; Outcome: inactive

What is on record for FARP1 #1?
migration relative to mock: 0.94; migration and cell number class: no change in migration or cell number; mean nuclei count: 5794; Outcome: inactive

For FARP1 #2, what does the deposit list?
migration relative to mock: 0.64; migration and cell number class: no change in migration or cell number; mean nuclei count: 5694; Outcome: inactive

What did the screen give for FARP1 #3?
migration relative to mock: 0.61; migration and cell number class: no change in migration or cell number; mean nuclei count: 5508; Outcome: inactive

With FARP1 #4, what was measured?
migration relative to mock: 0.46; migration and cell number class: migration reduced; mean nuclei count: 5082; Outcome: active
